Experimental findings from PubChem BioAssay AID445 (National Center for Advancing Translational Sciences (NCATS), 2006) are described below.

Some of the results follow. These are further read-outs of the screen, such as a control signal, another cell line or another target. No call is given for them. The list favours compounds with an active or inconclusive main result. Potencies come from curve fits of mixed quality, noted in brackets.

This test can be described thus: IkB Signaling. Conditions: ABC-DLBCL IkBa-CBG/CBR dual luciferase ratio (green luciferase fused to IkBa over red control in OCI-Ly3 lymphoma cells), 4 h. Summed up:
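Curves were fitted separately to fusion (green), unfused (red) and ratio luminescence, then classed by r2, magnitude and activity. Cells: OCI-Ly3, 4 h compound plus doxycycline at 37C; 10 uM MG-132 defined full response.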

Setting [1] is: measured here: control luc red channel unless noted.
Where [2] appears, read: measured here: IkB-luc green channel.
Setting [3] is: measured here: control luc red channel.

On to `C[C@@H]1C[C@@H]2[C@H]3CCC4=CC(=O)C=C[C@]4(C)[C@]3(Cl)[C@@H](O)C[C@@]2(C)[C@@]1(O)C(=O)CO`, for which, under setting [1], the AC50 (in general, the concentration giving half of the maximal activity seen) was 7.94 nM [rising, full curve] [measured here: IkB-luc green channel]. Still for that read-out and setting: next, `COc1ccc(-c2cc(-n3c(C(F)(F)F)nc4ccccc43)n(CCC#N)n2)cc1`: 15.8 µM [falling, partial curve]; `CCOc1ccc(-n2c(-c3ccc(OC)cc3)cc3c2CC(C)(C)CC3=O)cc1`: 15.8 µM [falling, partial curve]. In the case of `CCOc1ccc(NCc2cccn2-c2nnc(N3CCC(C(=O)NC(C)c4ccccc4)CC3)s2)cc1` (stereo not drawn), the AC50 under setting [1] is 39.8 µM [falling, single point]. Same read-out and setting: next, `CC1CCc2c(sc3nnn(CC(=O)Nc4cccc(C(F)(F)F)c4)c(=O)c23)C1` (stereo not drawn): 15.8 µM [falling, partial curve]. For `COc1ccc(CNC(=O)c2cc(-c3ccccc3OC)on2)cc1`, under setting [1], the AC50 was 5.01 µM [falling, partial curve]. The same measure, in the same setting: next, `Cn1nnc2cc(C(=O)NCCC3=CCCCC3)ccc21`: 0.501 µM [rising, full curve]; `CCN1C(C(=O)c2ccccc2)=C(OC(=O)c2ccc(Cl)cc2)c2ccccc2S1(=O)=O`: 12.6 µM [falling, partial curve]. As for `CCc1ccc2oc(-c3cccc(NC(=O)c4ccc(-c5cccc([N+](=O)[O-])c5)o4)c3)nc2c1`, the AC50 under setting [1] was 1.58 µM [falling, full curve]. Same read-out and setting: under `Cc1cccc(OC(C)C(=O)N2CCC(c3nc4ccccc4o3)CC2)c1C` (stereo not drawn) stands 12.6 µM [falling, partial curve]; under `CCOC(=O)c1cccc(NC(=O)N2Cc3ccccc3Oc3ncccc32)c1`, 25.1 µM [falling, single point]. Still for that read-out and setting: next, `CCOc1cccc(NC(=O)CSc2ncc(-c3ccc(Cl)cc3)[nH]2)c1`: 7.94 µM [falling, partial curve]; `Cc1ccc(OCCSc2nc3ccccc3n2CCC(=O)O)cc1C`: 12.6 µM [falling, partial curve]. Still for that read-out and setting: under `CCN1CCN(C(c2ccc(Cl)cc2)c2c(O)cc(C)n(CCOC)c2=O)CC1` (stereo not drawn) stands 39.8 µM [falling, single point]; under `COc1ccccc1-c1nnc(SC/C(O)=C(\C#N)c2nc3ccccc3[nH]2)n1C1CCCCC1`, 0.631 µM [falling, full curve]; under `CCCCn1cnc2cc(NC(=O)c3cc(OC)c(OC)c(OC)c3)ccc21`, 15.8 µM [falling, single point]. As for `Cc1cc(C)cc(N(CC(=O)Nc2ccc(C(F)(F)F)cc2)S(=O)(=O)c2c(C)[nH]c(=O)[nH]c2=O)c1`, under setting [1], the concentration at half-maximal activity (AC50) is 15.8 µM [falling, partial curve]. On the same count and under the same terms, next, `Cn1c(NCc2ccccc2F)nc2ccccc21`: 39.8 µM [falling, single point]; `N=c1n(CCO)c2ccccc2n1CCOc1ccc(F)cc1`: 20 µM [falling, partial curve, poor fit]; `Cc1cccc(C)c1NC(=O)C1CCN(S(=O)(=O)c2cccc3nsnc23)CC1`: 0.00631 µM [falling, full curve, poor fit]. The same measure, in the same setting: next, `CCOC(=O)C1CCN(C(=O)c2ccc3c(c2)sc2nc(-c4ccc(OCC)cc4)cn23)CC1`: 15.8 µM [falling, partial curve]; `COc1ccc(-c2nc(SCC(=O)NC3CCCC3)c(-c3ccccc3)[nH]2)cc1OC`: 39.8 µM [falling, single point]. With `CC(=O)c1cccc(-n2c(CCC(=O)O)ccc2-c2ccccc2)c1`, the half-maximal activity concentration (AC50) under setting [1] is 15.8 µM [falling, single point]. On the same count and under the same terms, next, `CCOc1ccccc1C(=O)N1CCc2cc(OC)c(OC)cc2C1COc1ccc2c(C)cc(=O)oc2c1` (stereo not drawn): 25.1 µM [falling, partial curve]; `Cc1ccc(-n2ncc3c(Nc4ccc5c(c4)OCCO5)ncnc32)cc1C`: 6.31 µM [falling, partial curve]; `CCCc1nnc(NC(=O)Cc2coc3cc(C)cc(C)c23)s1`: 7.94 µM [rising, single point].

For `O=C(CSc1nnc(CNC(=O)c2cccs2)o1)c1ccc(Cl)cc1`, the AC50 under setting [1] was 10 µM [falling, partial curve]. The same measure, in the same setting: next, `CCOC(=O)C1=C(c2ccccc2)NC(SCC(=O)Nc2ccc(C)cc2)=C(C#N)C1c1ccco1` (stereo not drawn): 3.16 µM [falling, full curve, poor fit].

As to `CCOc1ccc(Nc2nc3ccccc3n3c(CC)nnc23)cc1`, the AC50 under setting [1] was 39.8 µM [falling, single point]. Same read-out and setting: next, `O=C(Nc1ccc(Br)cc1)C1CCN(S(=O)(=O)c2cccc3nsnc23)CC1`: 12.6 µM [rising, partial curve]; `O=C(NCC(c1ccco1)S(=O)(=O)c1ccc(Cl)cc1)c1ccccc1F` (stereo not drawn): 39.8 µM [falling, single point].

Consider `COc1ccc(-c2nn3c(=O)cc(CN4CCN(C(=O)Nc5ccc(C)c(Cl)c5)CC4)nc3s2)cc1`, for which the AC50 under setting [1] was 0.126 µM [falling, full curve, poor fit].

For `Nn1c(COc2cccc(Br)c2)nnc1SCC(=O)N1CCc2ccccc2C1`, under setting [1], the AC50 is 15.8 µM [falling, partial curve]. Same read-out and setting: next, `Nc1c(-c2nc(-c3ccc(Cl)cc3)cs2)c2ccccn2c1C(=O)c1ccc2c(c1)OCO2`: 5.01 µM [falling, partial curve]; `COCCCNC(=O)c1cc2c(=O)n3cccc(C)c3nc2s1`: 0.2 µM [rising, full curve, poor fit]; `CCCCc1nc2ccccc2n2c(-c3ccc(C)cc3)c3c(=O)n(C)c(=O)n(C)c3c12`: 39.8 µM [falling, single point].

Take `CSc1cccc(NC(=O)CN(c2ccccc2)S(=O)(=O)N(C)C)c1`: the AC50 under setting [1] is 31.6 µM [falling, single point]. On to `CC1CCN(S(=O)(=O)c2ccc3c(c2)N(CC(=O)NC(C)c2ccccc2)C(=O)CO3)CC1` (stereo not drawn), for which the AC50 under setting [1] was 15.8 µM [falling, partial curve].

`Cc1cc(N2CCCCC2)nc2ccc(NC(=O)c3cccc(F)c3)cc12`: the AC50 under setting [1] is 31.6 µM [falling, single point]. Still for that read-out and setting: under `Cc1nc(N2CCCC2)c2c(C(=O)N3CCN(c4cccc(Cl)c4)CC3)c(C)oc2n1` stands 25.1 µM [falling, partial curve]; under `C=Cc1ccc(CSc2nc(-c3ccccc3Cl)nc3c2Cc2c(CO)cnc(C)c2O3)cc1`, 3.16 µM [falling, single point]. `O=c1cnc2cnc(Nc3ccccc3)nc2n1C[C@H]1CCCO1`: the AC50 under setting [2] was 2 µM [falling, partial curve] and the AC50 under setting [3] is 2.51 µM [falling, partial curve]. Turning to `CCN(c1ccccc1)c1nnc(NC(=O)Nc2cccc(Br)c2)s1`, the AC50 under setting [1] was 12.6 µM [falling, partial curve]. The same measure, in the same setting: next, `O=C1CC(c2nc3ccccc3n2CCCOc2ccccc2)CN1c1ccc(F)cc1` (stereo not drawn): 25.1 µM [falling, single point]. `COCCCNC(=O)CSc1c2c(nc3ccc(Cl)cc13)CCCC2`: the AC50 by setting is: under setting [2], 25.1 µM [rising, partial curve]; under setting [3], 10 µM [falling, partial curve].

For `CC(=O)C1=C(C)NC(SCC(=O)c2cc(Cl)ccc2Cl)=C(C#N)C1c1ccco1` (stereo not drawn), under setting [1], the AC50 is 10 µM [falling, partial curve].

Consider `CCN(c1ccc(OC)cc1)S(=O)(=O)c1nnc(NC(=O)c2ccccc2Cl)s1`, for which the AC50 under setting [1] is 12.6 µM [falling, partial curve]. Still for that read-out and setting: under `Cc1ccc(CNC(=O)c2ccc(CSCc3ccc(C)cc3)o2)cc1` stands 25.1 µM [falling, single point]; under `CCCCn1c(NCc2ccccc2O)nc2ccccc21`, 15.8 µM [falling, partial curve]. On the same count and under the same terms, under `Cc1ccc(NS(=O)(=O)c2ccc3[nH]c4c(c3c2)CCCCCC4)cc1Cl` stands 31.6 µM [falling, single point]; under `CCOC(=O)c1sc(NC(=O)c2cc(CC)on2)c(C(=O)OCC)c1C`, 39.8 µM [falling, single point]. Still for that read-out and setting: under `CCCOC(=O)c1ccc(NC(=O)Cc2csc(C)n2)cc1` stands 1.58 µM [rising, partial curve]. Consider `CCC(=O)N1CCc2cc(Br)cc(S(=O)(=O)NCc3ccc(Cl)cc3)c21`, for which, under setting [1], the AC50 is 15.8 µM [falling, partial curve]. Same read-out and setting: next, `O=C1c2ccccc2C(=O)N1CCc1nc(-c2ccccn2)no1`: 7.94 µM [falling, partial curve]; `CC(O)CNc1nc2ccccc2n1-c1ncnc2sc3c(c12)CCC3` (stereo not drawn): 25.1 µM [falling, partial curve]; `CCOC(=O)c1cnc2ccc(C)cc2c1Nc1ccc(OCc2ccccc2Cl)cc1`: 10 µM [falling, partial curve]. In the case of `COc1ccc2oc(-c3ccc(C)c(NC(=O)c4cccnc4)c3)nc2c1`, under setting [1], the AC50 was 39.8 µM [falling, single point]. Same read-out and setting: next, `CC1CCN(c2oc(-c3cccs3)nc2S(=O)(=O)c2ccc(Cl)cc2)CC1`: 12.6 µM [falling, partial curve]. On the same count and under the same terms, next, `Cc1cc(C(=O)CN(Cc2ccc(F)cc2)S(=O)(=O)c2ccc3c(c2)OCCO3)c(C)n1C`: 12.6 µM [falling, partial curve]; `Cc1ccc(OCC(=O)Nc2ccc3nc(SCC(=O)N4CCCC4)sc3c2)cc1`: 31.6 µM [falling, partial curve]. Take `CCOC(=O)c1c(SCC(=O)Nc2nc3ccc(C)cc3s2)nc(=O)[nH]c1C`: the AC50 under setting [1] was 1.58 µM [falling, partial curve].
